Measured data: PubChem BioAssay AID652259 (Drosophila RNAi Screening Center, 2013)

Assay: 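Knock-downs that push a Wingless-driven reporter up or down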 (primary screen)
Cell system: Drosophila clone 8 imaginal disc epithelial cells
Reagent: long dsRNA against Drosophila genes
Treatment: pathway stimulated by co-transfected Wingless expression plasmid
Read-out: 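Dual luciferase reads per well after Wingless plasmid stimulation: reporter firefly light and Renilla control light; activity is firefly divided by Renilla, a ratio not deposited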
Scale: firefly reporter light: higher = more Wg reporter light, before normalisation; Renilla control light: higher = more transfected or surviving cells
Rule for the call: 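a knock-down is a candidate when at least two out of four statistical tests show it departing from its plate mean; one test alone signals a weak candidate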
Calls: active = candidate regulator (raises or lowers reporter); inactive = not a candidate
The deposit covers about 22,000 reagents; shown is a random part of those that have a named target and a result. Of all reagents, 233 (1.1%) are marked active. 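Light values are raw, unnormalised plate reads; the ratio scores behind the reporter calls were not deposited.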 Entries without a mark were called inactive. A plus sign joins genes that one reagent is predicted to hit. The record does not give: the amount of reagent, the time to read-out, the dose of the treatment.

gene	dsRNA	reporter change call, replicate 1	firefly reporter light, replicate 1	firefly reporter light, replicate 2	Renilla control light, replicate 1	Renilla control light, replicate 2
CG6321	DRSC10623		7628		3329	
RunxB	DRSC20395		4653		1592	
RunxB	DRSC20525		20493		6681	
RunxB	DRSC20526		10368		326	
CG9733	DRSC16549		7367		3197	
CG14797 + CG32809	DRSC18562		17836		12404	
Tsp42Ea	DRSC04982		3424	7728	777	2827
Tsp42Ea	DRSC06792		2535	9299	738	3136
indra	DRSC08558		14437		3789	
CG1360	DRSC06406		3049	4855	904	2077
Gpdh1	DRSC03336		10432	5.51e5	5153	2.31e5
Gpdh1	DRSC21666		5.86e5	6.25e5	3.18e5	2.93e5
Opbp	DRSC04966		2224	7223	760	2148
Kcmf1	DRSC14459		3820		1884	
GCC185	DRSC15493		17684		5013	
Cht12	DRSC03844		12042		6912	
CG13631	DRSC14632		3492	8427	2064	3233
CG13921	DRSC08390		19144	6.98e5	7360	2.88e5
CG1909	DRSC17150		2944	9083	672	2752
glob3	DRSC12261		19344		2432	
CG33773	DRSC14032		4996		2368	
glu	DRSC03539		5722		1979	
ND-MWFE	DRSC06364		11335		4288	
CG33137	DRSC22131		5.14e5	6.18e5	2.32e5	2.81e5
CG32373	DRSC08895	Wg reporter activity lowered	1924		1056	
CG31121	DRSC15361		16240		14348	
CG31121	DRSC15363		19179		14344	
CG10931	DRSC06015		7859		1976	
Tmem214	DRSC02924		2051	5367	893	2891
Tmem214	DRSC02925		3141	7076	1338	4690
CG33263	DRSC10108		5244		2602	
CG13563	DRSC22153		6.50e5	6.53e5	2.49e5	2.21e5
CG1113	DRSC12163		10390		1924	
CG31174	DRSC13518		2528		1207	
Hsp60C	DRSC03036		2251	5686	920	954
GstT1	DRSC06243		2698	8883	1136	3524
Trap1	DRSC05019		16705		6711	
Dnaaf5	DRSC13032		2892		1212	
CG34030	DRSC08866		2313		1571	
AlaRS-m	DRSC09660		4320		1984	
Or9a	DRSC18692		18299		8117	
CG4956	DRSC15683		15514		16205	
Slu7	DRSC14729		6610		2171	
l(1)G0320	DRSC18255		1868	5929	569	1968
Ugt37C2	DRSC02247		1617	4586	807	2818

Part of the list above in another layout.
| gene | dsRNA | reporter change call, replicate 1 | firefly reporter light, replicate 1 | firefly reporter light, replicate 2 | Renilla control light, replicate 1 | Renilla control light, replicate 2 |
| --- | --- | --- | --- | --- | --- | --- |
| CG33263 | DRSC10108 | – | 5244 | – | 2602 | – |
| CG13563 | DRSC22153 | – | 6.50e5 | 6.53e5 | 2.49e5 | 2.21e5 |
| CG1113 | DRSC12163 | – | 10390 | – | 1924 | – |
| CG31174 | DRSC13518 | – | 2528 | – | 1207 | – |
| Hsp60C | DRSC03036 | – | 2251 | 5686 | 920 | 954 |
| GstT1 | DRSC06243 | – | 2698 | 8883 | 1136 | 3524 |
| Trap1 | DRSC05019 | – | 16705 | – | 6711 | – |
| Dnaaf5 | DRSC13032 | – | 2892 | – | 1212 | – |
| CG34030 | DRSC08866 | – | 2313 | – | 1571 | – |
| AlaRS-m | DRSC09660 | – | 4320 | – | 1984 | – |

Continued.
gene	dsRNA	reporter change call, replicate 1	firefly reporter light, replicate 1	firefly reporter light, replicate 2	Renilla control light, replicate 1	Renilla control light, replicate 2
Pino	DRSC00038		24832		4466	
Pino	DRSC00662		14518		5251	
ppk22	DRSC22093		5.08e5	5.35e5	2.15e5	2.29e5
Tfb4	DRSC00675		5676	10515	944	2343
CG15725	DRSC19691		17271		8118	
ng4	DRSC18805		21921		16404	
CG2871	DRSC18230		30024		13925	
CG2871	DRSC21719		4.77e5	5.46e5	2.45e5	1.92e5
cert	DRSC09674		4272		1668	
CG14551	DRSC14894		15856		14512	
5-HT2B	DRSC16360		10982		3437	
5-HT2B	DRSC16362		10080		3098	
RpL21	DRSC03704		4093	11169	923	2072
AOX3	DRSC15955		8891		4075	
S2P	DRSC07311		6569		2018	
CG12010	DRSC08218		2979		1927	
CG12288	DRSC02155		1827	6084	1019	3447
Bicra	DRSC14417	Wg reporter activity raised (active)	16475		1756	
CG8093	DRSC07078		5419		1989	
CG32628 (retired record)	DRSC19405		19976		11174	
Myb	DRSC20260		1130	3207	557	1179
CG34282	DRSC16298		15128		3168	
CG17658	DRSC04292		2881	7792	787	2480
Fili	DRSC03907		11872		7808	
Fili	DRSC04132		1958	7056	770	2717
Fili	DRSC04445		1901	10003	689	2413
bbc	DRSC06958		19638		6352	
bbc	DRSC22309		3.77e5	4.02e5	1.67e5	1.65e5
